The target in assay [1] is human PADI4 stably expressed in mouse ES cells (hPADI4-stable) (human) (UniProt Q9UM07). Kind of assay: pull-down; cellular hPADI4 isolated from lysate of hPADI4-stable mES cells by its ligand bio-PADI4_7 on streptavidin beads; partners detected by immunoblot.
Assay [2] addresses human PADI4 stably expressed in E14 mouse embryonic stem cells (hPADI4-stable) (human) (UniProt Q9UM07). Kind of assay: pull-down; PADI4 isolated through bio-PADI4_7 on streptavidin beads from lysate of hPADI4-stable mES cells; associated proteins detected by immunoblot (Fig. S16B). For orientation: A western blot detects proteins with antibodies after separation by electrophoresis.

Results are given in words; binding and its absence hold for the method and conditions named. Binding seen in cells or lysates may run through a third protein. Some entries that bind do so weakly or less than the wild type.

As for Impdh2 (from UniProt P24547 1-514), the binding entry in assay [1] and in assay [2] was “binds” in each case.

Source of the values: paper PMC11555231.
